# Experimental data as given in patent US20140072558A1.
# Sequences of proteins named here, by UniProt entry; tags and fusion partners are left off. Residues count along the entry.
# UniProt P80370, residues 24-383: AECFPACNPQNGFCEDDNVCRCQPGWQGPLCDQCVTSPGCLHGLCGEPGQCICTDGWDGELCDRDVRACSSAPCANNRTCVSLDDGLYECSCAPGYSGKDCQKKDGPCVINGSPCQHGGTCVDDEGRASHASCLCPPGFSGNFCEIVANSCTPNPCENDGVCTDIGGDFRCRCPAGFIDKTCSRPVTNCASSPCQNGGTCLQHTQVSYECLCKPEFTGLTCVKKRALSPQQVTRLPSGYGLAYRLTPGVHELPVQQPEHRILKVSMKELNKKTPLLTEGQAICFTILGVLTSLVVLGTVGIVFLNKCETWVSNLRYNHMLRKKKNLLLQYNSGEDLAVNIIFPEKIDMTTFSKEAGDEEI
# No constants are given. Whether binding was seen depends on the method and setting. Some results given as binding are weak or reduced against the parent protein; the word gives no strength.
# B1: B09 antibody (antibody, V domains shown)
# VH: QMQLVESGGRLVRPGGSLRLSCAASGFPFTSYAMNWVRQTPGKGLEWVSTITATSGKTYYADSVKGRFTISRDNSRNTLFLQMNSLRAEDTAVYYCVRGESCSGGACSDFDYWGQGALVTVSS
# VL: QLVLTQPASVSGSPGQSVTISCTGTSSDIGRYNRVSWYQHHPGKAPKLILNDVTTRPSGFSNRFSGSKSGNTASLTISGLQAEDEADYSCGSYAGSYTYVFGTGTKVTVLG
# How the values were obtained:
# [1] = biological target: DLK1 on 293E cells expressing DLK1 (UniProt P80370); test: flow cytometry and fluoroimmunoassay
# [2] = biological target: DLK1 on 293E cells expressing DLK1 (UniProt P80370); test: flow cytometry on 293E cells expressing DLK1
binder,measurement,setting,value
B1,binding,[1],binds
same,binding,[2],binds
